# This is one part of the list.
# B1: PX14404-bvu-534-26-534 (Bacteroides vulgatus) (protein)
# chain: EDPRGKLTPENFFSTQDELNMSIYALYQKVNLSQVYTNMQLPQWQGDDITTNPGSNKQPAAEMDKFAAANNNKGVKDAWNMHYAIVKAANLIIQGASKTPTTQDEINIALGQAKFWRAYAYFTLVRLWGPLPMNLDNVNDDYTKPLSPVEEVYGHIVQDLTEAEAVLPTGYSGSPRFLNGVNVYVTRQAAKSTLAAVYMAMAGWPMNKTEYYAKAAEKAKEVIEGVNRGEYEYKLDKDYKDVYAMSNNYNNETVLGINYSPFVDWAQDSELTSCNQFESLGGWGDAWGEIRFWKEFPDGPRKDATYDPKIRLKDGTLVDWWELKEDGTPVVPEHHPMFSIFSVNWDPASKVNTSAPYDYTKPASQNMCNDHRHRIIRYSEVLLWYAEAKARTGQTDELAFKCLNDVRERAGLEPLTGLSADDLAEAAYKEHGWEVAGYWVALVTRRADQFRMNRLKDTFKERAENTAVEVADGILVKESVEYTNRTWSDNLMYLPYPDMDSQKNPNLVR
# How the values were obtained:
# Assay in all cases: glycan array binding signal (z-score within array); higher = stronger binding
# Conditions in all cases: glycan notation: IUPAC condensed, linker removed
# Fuc(a1-3)GlcNAc = molecular target: Fuc(a1-3)GlcNAc
# In short: (§1)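 Glycan array binding is given as a within-array Z-score, which can be read as non-binding when negative. The arrays, 3228 of them, came from the Consortium for Functional Glycomics database and were retained only where the protein sequence was available. Z-scores were averaged across arrays of the same protein sequence at different concentrations or buffers and across linkers.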
# [1] = molecular target: Fuc(a1-3)[Gal(b1-4)]Glc6S
# In short: as §1
# [2] = molecular target: Fuc(a1-3)[Gal(b1-4)]GlcNAc
# In short: as §1
# [3] = molecular target: Fuc(a1-3)[Gal(b1-4)]GlcNAc(b1-2)Man
# In short: as §1
# [4] = molecular target: Fuc(a1-3)[Gal(b1-4)]GlcNAc(b1-2)Man(a1-3)[Fuc(a1-3)[Gal(b1-4)]GlcNAc(b1-2)Man(a1-6)]Man(b1-4)GlcNAc(b1-4)GlcNAc
# In short: as §1
# [5] = molecular target: Fuc(a1-3)[Gal(b1-4)]GlcNAc(b1-2)Man(a1-3)[Fuc(a1-3)[Gal(b1-4)]GlcNAc(b1-2)Man(a1-6)]Man(b1-4)GlcNAc(b1-4)[Fuc(a1-6)]GlcNAc
# In short: as §1
# [6] = molecular target: Fuc(a1-3)[Gal(b1-4)]GlcNAc(b1-3)Gal(b1-3)[Fuc(a1-4)]GlcNAc
# In short: as §1
# [7] = molecular target: Fuc(a1-3)[Gal(b1-4)]GlcNAc(b1-3)Gal(b1-4)[Fuc(a1-3)]GlcNAc
# In short: as §1
# [8] = molecular target: Fuc(a1-3)[Gal(b1-4)]GlcNAc(b1-3)Gal(b1-4)[Fuc(a1-3)]GlcNAc(b1-3)Gal(b1-4)[Fuc(a1-3)]GlcNAc
# In short: as §1
# [9] = molecular target: Fuc(a1-3)[Gal(b1-4)]GlcNAc(b1-3)GalNAc
# In short: as §1
# [10] = molecular target: Fuc(a1-3)[Gal(b1-4)]GlcNAc(b1-6)GalNAc
# In short: as §1
# [11] = molecular target: Fuc(a1-3)[Gal(b1-4)]GlcNAc(b1-6)[Gal(b1-3)GlcNAc(b1-3)]Gal(b1-4)Glc
# In short: as §1
# [12] = molecular target: Fuc(a1-3)[Gal(b1-4)]GlcNAc6S
# In short: as §1
# [13] = molecular target: Fuc(a1-3)[Gal3S(b1-4)]Glc
# In short: as §1
# [14] = molecular target: Fuc(a1-3)[Gal3S(b1-4)]GlcNAc
# In short: as §1
# [15] = molecular target: Fuc(a1-3)[Gal3S(b1-4)]GlcNAc6S
# In short: as §1
# [16] = molecular target: Fuc(a1-3)[GalNAc(b1-4)]GlcNAc
# In short: as §1
# [17] = molecular target: Fuc(a1-3)[GalNAc(b1-4)]GlcNAc6S
# In short: as §1
# Fuc(a1-4)GlcNAc = molecular target: Fuc(a1-4)GlcNAc
# In short: as §1
# Fuc(b1-3)GlcNAc = molecular target: Fuc(b1-3)GlcNAc
# In short: as §1
# Gal(a1-2)Gal = molecular target: Gal(a1-2)Gal
# In short: as §1
# Gal(a1-3)Gal = molecular target: Gal(a1-3)Gal
# In short: as §1
# Gal(a1-3)Gal(b1-3)GlcNAc = molecular target: Gal(a1-3)Gal(b1-3)GlcNAc
# In short: as §1
# [18] = molecular target: Gal(a1-3)Gal(b1-3)GlcNAc(b1-2)Man
# In short: as §1
# [19] = molecular target: Gal(a1-3)Gal(b1-3)GlcNAc(b1-2)Man(a1-3)[Gal(a1-3)Gal(b1-3)GlcNAc(b1-2)Man(a1-6)]Man(b1-4)GlcNAc(b1-4)GlcNAc
# In short: as §1
# [20] = molecular target: Gal(a1-3)Gal(b1-3)GlcNAc(b1-3)GalNAc
# In short: as §1
# [21] = molecular target: Gal(a1-3)Gal(b1-3)GlcNAc(b1-6)GalNAc
# In short: as §1
# [22] = molecular target: Gal(a1-3)Gal(b1-3)[Fuc(a1-4)]GlcNAc(b1-2)Man(a1-3)[Gal(a1-3)Gal(b1-3)[Fuc(a1-4)]GlcNAc(b1-2)Man(a1-6)]Man(b1-4)GlcNAc(b1-4)GlcNAc
# In short: as §1
# Gal(a1-3)Gal(b1-4)Glc = molecular target: Gal(a1-3)Gal(b1-4)Glc
# In short: as §1
# Gal(a1-3)Gal(b1-4)GlcNAc = molecular target: Gal(a1-3)Gal(b1-4)GlcNAc
# In short: as §1
# [23] = molecular target: Gal(a1-3)Gal(b1-4)GlcNAc(b1-2)Man
# In short: as §1
# [24] = molecular target: Gal(a1-3)Gal(b1-4)GlcNAc(b1-2)Man(a1-3)[Gal(a1-3)Gal(b1-4)GlcNAc(b1-2)Man(a1-6)]Man(b1-4)GlcNAc(b1-4)GlcNAc
# In short: as §1
# [25] = molecular target: Gal(a1-3)Gal(b1-4)GlcNAc(b1-3)GalNAc
# In short: as §1
# [26] = molecular target: Gal(a1-3)Gal(b1-4)GlcNAc(b1-6)GalNAc
# In short: as §1
# [27] = molecular target: Gal(a1-3)Gal(b1-4)[Fuc(a1-3)]GlcNAc
# In short: as §1
# [28] = molecular target: Gal(a1-3)Gal(b1-4)[Fuc(a1-3)]GlcNAc(b1-2)Man(a1-3)[Gal(a1-3)Gal(b1-4)[Fuc(a1-3)]GlcNAc(b1-2)Man(a1-6)]Man(b1-4)GlcNAc(b1-4)GlcNAc
# In short: as §1
# Gal(a1-3)GalNAc = molecular target: Gal(a1-3)GalNAc
# In short: as §1
binder,measurement,setting,value
B1,glycan array binding signal (z-score),Fuc(a1-3)GlcNAc,-0.234
same,glycan array binding signal (z-score),[1],0.853
same,glycan array binding signal (z-score),[2],-0.417
same,glycan array binding signal (z-score),[3],0.308
same,glycan array binding signal (z-score),[4],0.812
same,glycan array binding signal (z-score),[5],0.082
same,glycan array binding signal (z-score),[6],-0.723
same,glycan array binding signal (z-score),[7],-0.605
same,glycan array binding signal (z-score),[8],0.149
same,glycan array binding signal (z-score),[9],0.244
same,glycan array binding signal (z-score),[10],1.74
same,glycan array binding signal (z-score),[11],-0.693
same,glycan array binding signal (z-score),[12],-0.499
same,glycan array binding signal (z-score),[13],-0.877
same,glycan array binding signal (z-score),[14],-0.373
same,glycan array binding signal (z-score),[15],-1.18
same,glycan array binding signal (z-score),[16],1.15
same,glycan array binding signal (z-score),[17],1.21
same,glycan array binding signal (z-score),Fuc(a1-4)GlcNAc,-0.669
same,glycan array binding signal (z-score),Fuc(b1-3)GlcNAc,-0.374
same,glycan array binding signal (z-score),Gal(a1-2)Gal,-0.738
same,glycan array binding signal (z-score),Gal(a1-3)Gal,-0.042
same,glycan array binding signal (z-score),Gal(a1-3)Gal(b1-3)GlcNAc,-0.454
same,glycan array binding signal (z-score),[18],-0.405
same,glycan array binding signal (z-score),[19],1.2
same,glycan array binding signal (z-score),[20],-0.041
same,glycan array binding signal (z-score),[21],-0.446
same,glycan array binding signal (z-score),[22],1.79
same,glycan array binding signal (z-score),Gal(a1-3)Gal(b1-4)Glc,0.053
same,glycan array binding signal (z-score),Gal(a1-3)Gal(b1-4)GlcNAc,-0.582
same,glycan array binding signal (z-score),[23],-0.34
same,glycan array binding signal (z-score),[24],0.072
same,glycan array binding signal (z-score),[25],-0.423
same,glycan array binding signal (z-score),[26],-0.701
same,glycan array binding signal (z-score),[27],-1.29
same,glycan array binding signal (z-score),[28],-1.05
same,glycan array binding signal (z-score),Gal(a1-3)GalNAc,-0.314

# Two entries picked at random from the list so far:
binder,measurement,setting,value
B1,glycan array binding signal (z-score),[11],-0.693
same,glycan array binding signal (z-score),[24],0.072

# From the supplement of paper PMC8728848
